Test results from PMC9163754.

By UniProt entry, the sequences of proteins in these tests, tags left out. Where a name states a change or a piece, a line headed by the entry shows the natural chain unless it says otherwise.
UniProt P34152: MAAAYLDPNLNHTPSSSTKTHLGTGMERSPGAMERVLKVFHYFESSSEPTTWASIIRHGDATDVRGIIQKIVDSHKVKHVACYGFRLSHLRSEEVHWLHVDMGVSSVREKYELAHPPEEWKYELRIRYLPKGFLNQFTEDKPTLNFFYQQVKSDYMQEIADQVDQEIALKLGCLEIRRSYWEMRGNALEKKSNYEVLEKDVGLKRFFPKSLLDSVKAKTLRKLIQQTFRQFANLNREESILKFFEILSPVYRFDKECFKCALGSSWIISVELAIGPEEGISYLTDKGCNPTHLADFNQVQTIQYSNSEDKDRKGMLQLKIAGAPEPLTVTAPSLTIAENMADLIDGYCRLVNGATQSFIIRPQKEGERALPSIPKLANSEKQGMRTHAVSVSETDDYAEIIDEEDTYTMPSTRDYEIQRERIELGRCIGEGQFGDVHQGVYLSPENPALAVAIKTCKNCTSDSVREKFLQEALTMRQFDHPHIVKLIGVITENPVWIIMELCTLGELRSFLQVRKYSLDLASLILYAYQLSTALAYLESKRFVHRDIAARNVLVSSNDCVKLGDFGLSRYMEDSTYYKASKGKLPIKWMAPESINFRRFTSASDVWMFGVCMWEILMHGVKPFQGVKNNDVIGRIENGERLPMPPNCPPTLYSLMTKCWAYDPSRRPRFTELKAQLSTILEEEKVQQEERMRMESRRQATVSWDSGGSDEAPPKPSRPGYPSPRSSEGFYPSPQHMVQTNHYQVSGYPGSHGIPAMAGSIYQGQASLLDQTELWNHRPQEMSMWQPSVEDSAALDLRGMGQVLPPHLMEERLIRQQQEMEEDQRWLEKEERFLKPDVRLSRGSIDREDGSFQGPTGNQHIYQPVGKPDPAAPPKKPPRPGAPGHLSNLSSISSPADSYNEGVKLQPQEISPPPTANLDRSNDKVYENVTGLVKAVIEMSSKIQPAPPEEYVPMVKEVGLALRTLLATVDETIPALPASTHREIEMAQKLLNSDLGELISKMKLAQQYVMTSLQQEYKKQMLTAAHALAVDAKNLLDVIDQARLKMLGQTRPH
UniProt Q00534: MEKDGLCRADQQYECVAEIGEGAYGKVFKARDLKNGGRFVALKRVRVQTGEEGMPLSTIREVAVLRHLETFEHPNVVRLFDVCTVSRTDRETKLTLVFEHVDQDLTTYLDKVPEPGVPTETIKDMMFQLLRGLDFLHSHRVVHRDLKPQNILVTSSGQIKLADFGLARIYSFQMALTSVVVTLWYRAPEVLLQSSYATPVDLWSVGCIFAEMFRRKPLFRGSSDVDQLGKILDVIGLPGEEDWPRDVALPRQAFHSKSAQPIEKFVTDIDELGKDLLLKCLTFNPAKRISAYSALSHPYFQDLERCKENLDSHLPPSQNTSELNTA

Target: GFP-FERM (N-terminal FERM domain of FAK) (UniProt P34152)
Assay: co-IP; GFP-IP from HeLa cells transfected with GFP fusion constructs of FAK, treated with FAK-I and MG-132 for 6 h before immunoprecipitation; immunoblot for endogenous CDK4 and CDK6

binding: binds
Substance: cyclin-dependent kinase 6 (CDK6) (from UniProt Q00534 1-326)

Results are given in words; binding and its absence hold for the method and conditions named. In cells and extracts the contact can be indirect. A result given as binding can be weak or reduced; the word gives no strength.
